Where a chain is given by its changes, count along the chain named. The list shows a part of the results, in another mix than the full data. The calls were merged from several studies; some rest on single wells. The list shows a part of the results.
Key:
Details in all cases: stereoisomer not certain
[1] = tested on: T1, OR2F2
T1 sequence (whole entry): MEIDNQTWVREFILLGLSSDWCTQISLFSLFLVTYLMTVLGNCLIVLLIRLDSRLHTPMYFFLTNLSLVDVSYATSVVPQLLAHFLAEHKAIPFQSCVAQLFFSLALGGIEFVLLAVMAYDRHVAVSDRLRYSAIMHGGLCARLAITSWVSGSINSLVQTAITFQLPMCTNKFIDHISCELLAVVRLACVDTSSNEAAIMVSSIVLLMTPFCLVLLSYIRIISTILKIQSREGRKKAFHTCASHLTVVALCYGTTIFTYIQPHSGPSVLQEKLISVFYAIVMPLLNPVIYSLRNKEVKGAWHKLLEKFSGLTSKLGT
Procedure, shortened: (§1)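 Assay methods differ from source to source, frequently being transient luciferase assays in mammalian cell lines. For each receptor–molecule pair, the label responsive (active) applies when the original authors judged the measured signal statistically different from baseline, and non-responsive (inactive) applies otherwise.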

Chains of the proteins cited; added tags and fusions are not shown. Chains listed by the source or under a name are the forms on record and can include a tag or linker.
OR2J2, as listed by the source: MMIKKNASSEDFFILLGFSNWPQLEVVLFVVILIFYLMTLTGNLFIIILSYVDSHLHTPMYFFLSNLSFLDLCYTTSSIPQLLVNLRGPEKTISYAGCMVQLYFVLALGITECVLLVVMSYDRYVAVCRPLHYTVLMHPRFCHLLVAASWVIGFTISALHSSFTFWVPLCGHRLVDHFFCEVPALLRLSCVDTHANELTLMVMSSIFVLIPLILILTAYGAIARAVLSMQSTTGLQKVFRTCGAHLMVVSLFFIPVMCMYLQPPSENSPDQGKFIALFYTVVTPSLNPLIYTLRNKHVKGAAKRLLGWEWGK

[2] = tested on: T2, OR2G2
T2 sequence (whole entry): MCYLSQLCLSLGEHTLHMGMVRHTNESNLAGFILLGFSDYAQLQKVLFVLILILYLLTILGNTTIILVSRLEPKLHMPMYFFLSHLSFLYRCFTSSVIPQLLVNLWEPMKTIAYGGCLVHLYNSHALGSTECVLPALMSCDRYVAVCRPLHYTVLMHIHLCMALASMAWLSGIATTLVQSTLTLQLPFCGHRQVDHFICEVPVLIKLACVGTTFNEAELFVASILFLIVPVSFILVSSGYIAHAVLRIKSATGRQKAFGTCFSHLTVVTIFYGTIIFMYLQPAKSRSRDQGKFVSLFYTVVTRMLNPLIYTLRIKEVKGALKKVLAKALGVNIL
Procedure, shortened: as §1

[3] = tested on: T3, OR2G2; remark: listed apart in the source
T3 sequence (whole entry): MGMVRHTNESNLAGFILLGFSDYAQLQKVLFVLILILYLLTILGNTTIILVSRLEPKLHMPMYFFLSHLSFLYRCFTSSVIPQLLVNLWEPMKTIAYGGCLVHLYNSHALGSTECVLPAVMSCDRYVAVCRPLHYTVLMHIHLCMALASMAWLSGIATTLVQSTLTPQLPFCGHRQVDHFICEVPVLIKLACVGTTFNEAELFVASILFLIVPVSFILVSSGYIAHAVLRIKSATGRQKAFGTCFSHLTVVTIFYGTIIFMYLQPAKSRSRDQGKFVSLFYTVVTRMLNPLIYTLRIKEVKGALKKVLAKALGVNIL
Procedure, shortened: as §1

[4] = molecular target: T4, OR2G3 (Homo sapiens) (UniProt Q8NGZ4)
T4 sequence (whole entry): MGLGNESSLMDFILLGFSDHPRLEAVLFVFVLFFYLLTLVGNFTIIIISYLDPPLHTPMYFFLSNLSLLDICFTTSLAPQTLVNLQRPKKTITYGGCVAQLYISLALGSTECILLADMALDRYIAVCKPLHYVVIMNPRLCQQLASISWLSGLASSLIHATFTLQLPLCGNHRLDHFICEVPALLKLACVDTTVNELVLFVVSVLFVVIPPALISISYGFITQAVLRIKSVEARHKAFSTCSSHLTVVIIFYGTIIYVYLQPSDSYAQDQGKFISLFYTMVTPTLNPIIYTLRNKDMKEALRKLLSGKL
Procedure, shortened: as §1

[5] = tested on: T5, OR2G3
T5 sequence (whole entry): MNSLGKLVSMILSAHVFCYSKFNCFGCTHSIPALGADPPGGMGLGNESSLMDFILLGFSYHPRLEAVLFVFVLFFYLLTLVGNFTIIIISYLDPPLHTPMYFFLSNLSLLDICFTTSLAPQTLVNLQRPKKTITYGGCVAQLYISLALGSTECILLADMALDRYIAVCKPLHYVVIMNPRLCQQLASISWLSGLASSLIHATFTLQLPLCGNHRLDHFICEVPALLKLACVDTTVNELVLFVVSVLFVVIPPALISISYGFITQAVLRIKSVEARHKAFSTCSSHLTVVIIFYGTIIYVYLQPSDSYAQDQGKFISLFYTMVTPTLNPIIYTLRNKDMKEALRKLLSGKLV
Procedure, shortened: as §1

[6] = molecular target: T6, OR2G6 (Homo sapiens) (UniProt Q5TZ20)
T6 sequence (whole entry): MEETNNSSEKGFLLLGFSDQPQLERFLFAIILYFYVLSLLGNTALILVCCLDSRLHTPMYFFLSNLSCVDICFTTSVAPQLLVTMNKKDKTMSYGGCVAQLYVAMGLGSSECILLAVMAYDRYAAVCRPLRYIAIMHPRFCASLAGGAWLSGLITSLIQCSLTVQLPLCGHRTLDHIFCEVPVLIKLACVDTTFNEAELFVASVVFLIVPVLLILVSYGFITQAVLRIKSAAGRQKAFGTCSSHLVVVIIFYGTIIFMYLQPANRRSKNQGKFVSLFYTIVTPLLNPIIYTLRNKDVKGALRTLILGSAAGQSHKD
Procedure, shortened: as §1

[7] = molecular target: T7, OR2H1 (Homo sapiens) (UniProt Q9GZK4)
T7 sequence (whole entry): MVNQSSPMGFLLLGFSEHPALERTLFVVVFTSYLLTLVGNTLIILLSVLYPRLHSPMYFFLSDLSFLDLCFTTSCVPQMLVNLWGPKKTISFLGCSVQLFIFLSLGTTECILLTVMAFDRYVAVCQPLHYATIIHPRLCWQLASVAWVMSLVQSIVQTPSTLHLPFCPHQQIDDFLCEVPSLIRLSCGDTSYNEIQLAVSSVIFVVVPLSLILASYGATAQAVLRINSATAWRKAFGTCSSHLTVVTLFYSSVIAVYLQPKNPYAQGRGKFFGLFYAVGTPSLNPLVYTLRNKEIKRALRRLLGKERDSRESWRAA
Procedure, shortened: as §1

[8] = tested on: T8, OR2H2
T8 sequence (whole entry): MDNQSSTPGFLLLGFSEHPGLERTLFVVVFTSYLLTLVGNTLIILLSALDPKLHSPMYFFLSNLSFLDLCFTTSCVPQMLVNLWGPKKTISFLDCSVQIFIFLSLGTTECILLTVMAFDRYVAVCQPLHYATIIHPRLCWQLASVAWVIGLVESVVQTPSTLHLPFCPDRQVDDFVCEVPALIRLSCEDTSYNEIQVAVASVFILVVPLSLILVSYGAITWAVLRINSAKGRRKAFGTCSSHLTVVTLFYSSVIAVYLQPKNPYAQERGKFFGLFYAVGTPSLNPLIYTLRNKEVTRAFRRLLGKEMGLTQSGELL
Procedure, shortened: as §1

[9] = tested on: T9, OR2H2; remark: listed apart in the source
T9 sequence (whole entry): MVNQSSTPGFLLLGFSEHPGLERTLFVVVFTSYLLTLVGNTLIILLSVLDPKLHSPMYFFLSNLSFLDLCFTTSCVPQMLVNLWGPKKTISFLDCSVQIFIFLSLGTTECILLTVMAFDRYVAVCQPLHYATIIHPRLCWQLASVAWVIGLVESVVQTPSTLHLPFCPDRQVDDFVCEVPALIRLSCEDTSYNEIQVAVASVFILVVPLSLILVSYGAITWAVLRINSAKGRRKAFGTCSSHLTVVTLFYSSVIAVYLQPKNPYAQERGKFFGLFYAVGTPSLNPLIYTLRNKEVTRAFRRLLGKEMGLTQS
Procedure, shortened: as §1

[10] = tested on: T10, OR2J1
T10 sequence (whole entry): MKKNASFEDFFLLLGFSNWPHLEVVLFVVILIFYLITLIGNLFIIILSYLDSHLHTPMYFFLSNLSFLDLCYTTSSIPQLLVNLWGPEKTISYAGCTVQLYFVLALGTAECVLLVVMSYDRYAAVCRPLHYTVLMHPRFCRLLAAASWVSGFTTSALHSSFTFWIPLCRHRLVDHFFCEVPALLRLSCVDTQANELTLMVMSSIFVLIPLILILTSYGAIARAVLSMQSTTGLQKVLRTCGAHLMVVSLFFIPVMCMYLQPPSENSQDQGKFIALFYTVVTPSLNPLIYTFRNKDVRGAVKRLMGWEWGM
Procedure, shortened: as §1

[11] = molecular target: T11, OR2J2 (Homo sapiens) (UniProt O76002)
T11 sequence (whole entry): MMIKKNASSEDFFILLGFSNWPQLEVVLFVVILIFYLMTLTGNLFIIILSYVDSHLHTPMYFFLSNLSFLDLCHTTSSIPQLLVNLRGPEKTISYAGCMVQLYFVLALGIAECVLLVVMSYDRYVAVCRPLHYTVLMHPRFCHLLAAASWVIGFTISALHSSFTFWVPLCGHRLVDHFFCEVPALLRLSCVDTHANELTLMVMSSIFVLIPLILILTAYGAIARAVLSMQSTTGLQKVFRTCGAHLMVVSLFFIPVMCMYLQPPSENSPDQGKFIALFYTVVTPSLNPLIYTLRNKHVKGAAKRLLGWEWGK
Procedure, shortened: as §1

[12] = tested on: T12, OR2J2
T12 sequence (whole entry): T11 sequence (whole entry) with A218T
Procedure, shortened: as §1

[13] = tested on: T13, OR2J2; remark: listed apart in the source
T13 sequence (whole entry): T11 sequence (whole entry) with H74Y, A146V, A218T
Procedure, shortened: as §1

[14] = tested on: T14, OR2J2; remark: listed apart in the source
T14 sequence (whole entry): T11 sequence (whole entry) with H74Y, A111T, A146V
Procedure, shortened: as §1

[15] = molecular target: T15, OR2J3 (Homo sapiens) (UniProt O76001)
T15 sequence (whole entry): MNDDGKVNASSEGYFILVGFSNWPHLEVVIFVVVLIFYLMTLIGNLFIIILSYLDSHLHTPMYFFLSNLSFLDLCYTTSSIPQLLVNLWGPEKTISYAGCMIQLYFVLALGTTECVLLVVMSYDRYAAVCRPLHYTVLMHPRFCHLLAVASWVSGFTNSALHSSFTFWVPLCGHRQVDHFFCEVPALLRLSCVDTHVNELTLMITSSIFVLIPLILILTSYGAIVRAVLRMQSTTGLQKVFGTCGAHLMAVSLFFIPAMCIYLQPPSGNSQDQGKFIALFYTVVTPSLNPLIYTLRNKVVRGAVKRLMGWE
Procedure, shortened: as §1

Measured: odorant receptor agonist call

CC(=O)OCC=C(C)CCC=C(C)C
active: [8] | [14] | [15]
inactive: [1] | [2] | [3] | [4] | [5] | [6] | [7] | [9] | [10] | [11] | [12] | [13]

CCCCO
active: [15]
inactive: [1] | [2] | [3] | [4] | [5] | [6] | [7] | [8] | [9] | [10] | [11] | [12] | [13] | [14]

CC=Cc1ccc(O)c(OC)c1
active: [11] | [12] | [13] | [14] | [15]
inactive: [1] | [2] | [3] | [4] | [5] | [6] | [7] | [8] | [9] | [10]

CC12CCC(C1)C(C)(C)C2=O (configuration not stated)
inactive: [1] | [2] | [3] | [4] | [5] | [6] | [7] | [8] | [9] | [10] | [11] | [12] | [13] | [14] | [15]

CC1COCc2cc3c(cc21)C(C)(C)C(C)C3(C)C (configuration not stated)
active: [1] | [2] | [3] | [4] | [6] | [7] | [8] | [10] | [11] | [12] | [14]
inactive: [5] | [9] | [13] | [15]

CC1CCC(C(C)C)C(O)C1 (configuration not stated)
active: [6] | [15]
inactive: [1] | [2] | [3] | [4] | [5] | [7] | [8] | [9] | [10] | [11] | [12] | [13] | [14]

Retrieved by compound from the entries so far (2):
CC1CCC(C(C)C)C(O)C1 (configuration not stated)
active: [6] | [15]
inactive: [1] | [2] | [3] | [4] | [5] | [7] | [8] | [9] | [10] | [11] | [12] | [13] | [14]

CC1COCc2cc3c(cc21)C(C)(C)C(C)C3(C)C (configuration not stated)
active: [1] | [2] | [3] | [4] | [6] | [7] | [8] | [10] | [11] | [12] | [14]
inactive: [5] | [9] | [13] | [15]

Next compounds

CCCCCCCOC(C)=O
inactive: [1] | [2] | [3] | [4] | [5] | [6] | [7] | [8] | [9] | [10] | [11] | [12] | [13] | [14]
active: [15]

CCCCCCCC=CC=O
inactive: [1] | [2] | [3] | [4] | [5] | [6] | [7] | [8] | [9] | [10] | [11] | [12] | [13] | [15]
active: [14]

C=CCSCC=C
active: [15]
inactive: [1] | [2] | [3] | [4] | [5] | [6] | [7] | [8] | [9] | [10] | [11] | [12] | [13] | [14]

CCCCCC(=O)O
inactive: [1] | [2] | [3] | [4] | [5] | [6] | [7] | [8] | [9] | [10] | [11] | [12] | [13] | [14] | [15]

C=CCc1ccc(OC)c(OC)c1
inactive: [1] | [2] | [3] | [4] | [5] | [6] | [7] | [8] | [9] | [10] | [11] | [12]
active: [13] | [14] | [15]

CC(C)(O)CCCC1=CCC(C=O)CC1 (configuration not stated)
inactive: [11] | [15]

CCC1(O)C2(C)CCC(C2)C1(C)C (configuration not stated)
inactive: [1] | [2] | [3] | [4] | [5] | [6] | [7] | [8] | [9] | [10] | [11] | [12] | [13] | [14] | [15]
